# Patent US20180371107A1 (published 2018)
# Results are given in words; binding and its absence hold for the method and conditions named. Some results given as binding are weak or reduced against the parent protein; the word gives no strength.
# T1: mouse NSP4 (mNSP4), form not stated in Example 6 (mouse) (UniProt Q14B24)
# T1 sequence (looked up): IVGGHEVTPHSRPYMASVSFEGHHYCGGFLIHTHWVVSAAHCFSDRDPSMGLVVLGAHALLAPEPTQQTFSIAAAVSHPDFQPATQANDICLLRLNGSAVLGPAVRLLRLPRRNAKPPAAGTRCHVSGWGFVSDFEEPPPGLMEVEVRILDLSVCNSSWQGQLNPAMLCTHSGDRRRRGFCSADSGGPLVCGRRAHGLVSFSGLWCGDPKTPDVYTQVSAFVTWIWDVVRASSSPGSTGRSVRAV
# B1: Fab 5-1 (NSP4 antibody 5-1, Fab format) (Fab, V domains shown)
# VH: EVQLVESGGGLVQPGGSLRLSCAASGFTFSGSGIHWVRQAPGKGLEWVAWISPTGGNTYYADSVKGRFTISADTSKNTAYLQMNSLRAEDTAVYYCAKSLFHNVAFDYWGQGTLVTVSS
# VL: DIQMTQSPSSLSASVGDRVTITCRASQDVSTAVAWYQQKPGKAPKLLIYSASFLYSGVPSRFSGSGSGTDFTLTISSLQPEDFATYYCQQSYTTPPTFGQGTKVEIKR
# Target: T1, mouse NSP4 (mNSP4), form not stated in Example 6 (mouse)
# Test: BLI: mouse NSP4 preincubated with Fab 5-1 as competitor
binder,measurement,value
B1,binding,binds
